The list shows a part of the results. Values are raw readings; no control value is given beside them.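 Primary screen: polymyxin B was added at a level permeabilizing Salmonella outer membranes while sparing inner membranes. DMSO wells, both with and without polymyxin B, established maximum growth. Plate-to-plate variation meant each plate was ranked on its own, and the lowest-OD600 compounds were selected as hits.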
Tested on: Salmonella enterica serovar Typhimurium SL1344
Test: bacterial growth OD600 after 18 h with compound and polymyxin B; higher = more bacterial growth (less inhibition)
Conditions: 50 µM, Mueller-Hinton broth

| SMILES | bacterial growth OD600 (polymyxin B 1 µg/mL) | bacterial growth OD600 (polymyxin B 0.75 µg/mL) |
| --- | --- | --- |
| O=C(CC(c1ccc(O)cc1)c1ccccc1O)NC1(c2ccccc2)CC1 (stereo not given) | 0.712 | – |
| O=C(NCc1ccc(Cl)s1)C1CCCN(C2CCN(C(=O)C3CC3)CC2)C1 (stereo not given) | – | 0.788 |
| O=C(c1ccc(OC2CCN(C(=O)C3CC3)CC2)cc1)N1CCC(c2ccncc2)CC1 | 0.936 | – |
| CCc1[nH]c2c(CNC(=O)CC3CN(C)CCN3C)cc(F)cc2c1C (stereo not given) | 1.01 | – |
| CN1N=C(C(=O)N2CCCC(CCc3ccccc3)C2)CCC1=O (stereo not given) | – | 0.812 |
| COc1ccc(CC2(CCC(=O)NCc3ccc(C(F)(F)F)cc3)CCC(=O)N2)cc1 (stereo not given) | – | 0.773 |
| CCC1CN(CCNC(=O)/C=C/c2cccs2)Cc2cc(OC)ccc2O1 (stereo not given) | – | 0.87 |
| CN(C(=O)c1csc2nc(-c3ccc(Cl)cc3)cn12)C1CCOCC1 | 1.14 | – |
| O=C(Nc1cccc(N2CCC(NCc3cnn(Cc4ccccc4)c3)CC2)c1)c1cccnc1 | – | 0.879 |
| O=C(Cc1cccc(F)c1F)N1CCC(C2(c3cccnc3)NC(=O)N(CC3CCCO3)C2=O)CC1 (stereo not given) | – | 0.84 |
| CCOC(=O)C1(Cc2ccc(OC)cc2)CCN(C(=O)COC)CC1 | 0.937 | – |
| COc1cc(CC2(CCC(=O)N3CCC(Oc4cccc(Cl)c4)CC3)CCC(=O)N2)ccc1F (stereo not given) | – | 0.002 |
| O=C(c1ccco1)N1CCC(C2CCN(Cc3cccnc3)CC2)C1 (stereo not given) | – | 0.973 |
| Cc1cccc2nc(C(=O)N(C)C3CCCN(CCc4ccccc4)C3)cn12 (stereo not given) | 0.83 | – |
| COC(=O)C1CCCCN1Cc1nc(-c2ccc(OC)c(C)c2)oc1C (stereo not given) | 0.835 | – |
| COc1ccccc1OCC(=O)NC1CCCc2c1cnn2-c1cccc(C)c1C (stereo not given) | 0.702 | – |
| COc1cccc(CN2CCCC3(CCN(C(=O)CCC(C)C)C3)C2=O)c1OC (stereo not given) | 0.76 | – |
| COc1ccc(CN2CCC(OC)CC2)cc1OCC(O)CN1CCCCC1 (stereo not given) | 1.08 | – |
| O=C(CN1CCCCC1)NC1CCCc2c1cnn2-c1cc(F)cc(F)c1 (stereo not given) | 0.987 | – |
| CO[C@H]1[C@H](NC(=O)COc2ccccc2)c2ccccc2C12CCN(C(=O)c1ccc(C)c(C)c1)CC2 | – | 0.014 |

2 entries from above, reformatted.
CN(C(=O)c1csc2nc(-c3ccc(Cl)cc3)cn12)C1CCOCC1
  bacterial growth OD600 (polymyxin B 1 µg/mL): 1.14
COC(=O)C1CCCCN1Cc1nc(-c2ccc(OC)c(C)c2)oc1C (stereo not given)
  bacterial growth OD600 (polymyxin B 1 µg/mL): 0.835

Source: the supplement of paper PMC12889115
